Some entries share one result that the patent states for a list of compounds.
System: gray garden slugs
Test: Body weight loss and phenotype after peptide injection into slugs
Type: in vivo, Deroceras reticulatum
Conditions: 10 nmol in 5 μl water injected; after 72 h
Protocol: The gray garden slugs utilized herein (Deroceras reticulatum) were collected in Corvallis, Oregon, USA, and maintained with carrot and lettuce in a controlled incubator (13° C., 90% RH, 14: 10=light:dark, dim light). To test their effects on slugs, peptides of SEQ ID NO: 3 and SEQ ID NO: 4 were dissolved in 5 μl of purified water (10 nmol) and injected into four gray garden slugs per each treatment. Over 80% of the slug body weight was lost after 72 h when either peptide was injected into the slugs, almost 2-fold higher than the water control (FIG. 3).

| Substance | slug body weight lost |
| --- | --- |
| QPPLPRY [SEQ ID NO: 3, synthetic peptide, source D. reticulatum] | Over 80% |
| QPPVPRY [SEQ ID NO: 4, synthetic peptide, source D. reticulatum] | Over 80% |
